In PubChem BioAssay AID1117359 (Southern Research Institute, 2015):
Where “and” joins values, the source holds several entries; their conditions need not be identical. Identical values can stand only once. Out of some 1,500 compounds screened, about 460 (31%) were called active.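 The calls were made as follows: active = viability at or below 80% at any tested concentration, marking the compound as toxic; inactive = the rest.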 The entries are a selection whose mix differs from that of the whole data set. Measured potencies and affinities stand elsewhere.

assay: THP-1 cell cytotoxicity, dose response, cytotoxicity control for Vif-APOBEC3G degradation inhibitor project, THP-1 cells (AID 1117359); conditions: THP-1 viability, CellTiter-Glo luminescence, 72 h; at 40 µM (top of the series)

Structure (SMILES) | viability
COc1ccc(/C=N/NC(=O)c2cc(O)c(O)c(O)c2)cc1Cn1cc([N+](=O)[O-])cn1 | inactive: 125%
CCOC(=O)COc1nc(-c2ccco2)cc(-c2ccco2)c1C#N | inactive: 92.6%
Cc1cc(S(=O)(=O)n2ccnc2)c(Cl)cc1Cl | inactive: 116%
CC1(C)CC(=O)C(C2NCCc3ccccc32)=C(O)C1 (stereo not given) | inactive: 87.3%
O=C1/C(=C/c2ccco2)Oc2c1ccc(O)c2CN1CCCCC1 | inactive: 113%
COCCn1nnnc1C(c1cc2cc(OC)c(OC)cc2[nH]c1=O)N1CCN(c2ccc(O)cc2)CC1 (stereo not given) | inactive: 115%
O=C(O)C1Nc2ccc(Br)cc2C2C=CCC12 (stereo not given) | inactive: 109%
COC(=O)COc1ccc2c(c1C)O/C(=C\c1ccco1)C2=O | inactive: 96.7%
COC(=O)c1ccc(S(=O)(=O)N2CCN(CCO)CC2)n1C | inactive: 93.1%
CCN1C(=O)c2c(C)nc3ccccc3c2C1=O | inactive: 99.6%
Cc1ccc(OCc2ccc(C(=O)NN)o2)cc1C | inactive: 89.7%
CCc1cccc(NC(=O)CCS(=O)(=O)c2ccc(Br)cc2)c1 | inactive: 87.2%
NC(CO)C(=O)NNCc1ccc(O)c(O)c1O (stereo not given) | inactive: 91.1%
COc1cc(/C=C2/C(=O)N(c3ccc(Br)cc3)N=C2C)cc(OC)c1OC | inactive: 92.3%
CC1=Nc2nc(N3CCCCC3)c(C#N)c3c4c(nc(c23)N1)N(c1ccc(C(C)C)cc1)C(=O)C4 | inactive: 89.2%
O=C(Nc1ccc(F)c(Cl)c1)c1cccnc1 | inactive: 80%
Cc1cc(C(=O)NNC(=O)/C=C/c2ccco2)c(C)o1 | inactive: 102%
CCOC(=O)C(=O)Cc1cccnn1 | inactive: 114%
C/C(=N\Nc1ccc(Cl)c(C(=O)O)c1)c1ccc[nH]1 | inactive: 101%
O=C(O)CCCCC1CCSS1 (stereo not given) | inactive: 84.7%
CC1=C(C(=O)OCC(Cl)(Cl)Cl)N2C(=O)C(NC(=O)Cc3ccccc3)C2SC1 (stereo not given) | inactive: 93.4%
O=C(O)c1ccc(-n2cccc2/C=C2/NC(=O)N(c3cccc(Cl)c3)C2=O)cc1 | inactive: 101%
CCC1CCC2(CC1)NC(=O)N(CC(=O)Nc1ccc(OC)c(Cl)c1)C2=O (stereo not given) | inactive: 109%
Cc1ccccc1NS(=O)(=O)c1ccc2[nH]cc(C(=O)N(C)Cc3ccco3)c(=O)c2c1 | inactive: 84.1%

Structure (SMILES) | viability
CC(/C=N/n1c(-c2ccncc2)n[nH]c1=S)=C\c1ccco1 | inactive: 96.5%
CNCc1ccccc1Sc1ccc(O)c(O)c1 | inactive: 91.4%
COc1ccccc1NC(=O)CN(c1ccccc1OC)S(=O)(=O)c1ccccc1 | inactive: 85.5%
C=C(C)C(=O)Nc1cccc(C2=NOC3(C2)C[C@H](C(N)=O)N(C(=O)C(c2ccccc2)c2ccccc2)C3)c1 (stereo not given in full) | inactive: 87.4%
Cc1ccccc1OCC(=O)OCC(=O)c1ccc(OC(=O)c2ccccc2)cc1 | inactive: 96.2%
Cc1onc(-c2ccccc2)c1CNC(=O)C1COc2ccccc2O1 (stereo not given) | inactive: 81%
Cc1cccc(NC(=O)CSc2nnc(CCC(=O)Nc3ccc(C)c(Cl)c3)n2C)c1 | inactive: 99.7%
O=C(NCCc1ccccc1)c1ccc2nc(-c3ccco3)c(-c3ccco3)nc2c1 | inactive: 86.9%
COc1cccc(CN2CCSCC2)c1 | inactive: 91.3%
CCCc1cc(=O)[nH]c(SCC(=O)c2c(C)[nH]c3ccccc23)n1 | inactive: 116%
O=C(O)c1cccc2cccc(-c3c4ccc(=O)c(O)c-4oc4c(O)c(O)ccc34)c12 | inactive: 89.6%
COc1cc(-n2cnnn2)ccc1S(=O)(=O)N1CCOCC1 | inactive: 106%
O=c1[nH]c2ccccc2n2c(-c3ccccc3)nnc12 | inactive: 98.6%
CC(=O)c1ccc2c(c1)C1C=CCC1C(C(=O)O)N2 (stereo not given) | inactive: 97.9%
O=C(COC(=O)c1ccccc1)Nc1ncc([N+](=O)[O-])s1 | inactive: 85%
CCOc1cc(N2CCOCC2)c(OCC)cc1NC(C)C(=O)N1CCN(CC)CC1 (stereo not given) | inactive: 108%
NNC(=S)Nc1ccc(Cl)cc1 | inactive: 98.7%
COC(=O)C(Cc1c[nH]c2ccccc12)NC(=O)C(C)C (stereo not given) | inactive: 107%
CCOc1cc(C(C(=O)NCC2CCCO2)N(C(=O)Cn2nnc3ccccc32)c2cccc(OC)c2)ccc1O (stereo not given) | inactive: 98.6%
COC(=O)Cc1csc(Nc2c(C)n(C)n(-c3ccccc3)c2=O)n1 | inactive: 117%
Cc1ccc(Oc2ccc(/C=N/O)cn2)cc1 | inactive: 89.2%
O=C(/C=C/c1ccc(O)c(O)c1)OC1C(O)CC(OC(=O)/C=C/c2ccc(O)c(O)c2)(C(=O)O)CC1O (stereo not given) | inactive: 91.9% and inactive: 114%
FC(F)Oc1ccccc1NC(=S)Nc1cccnc1 | inactive: 80.5%
O=C(Cn1c(=O)[nH]c2ccccc2c1=O)N1CCN(c2cccc(Cl)c2)CC1 | inactive: 105%

Structure (SMILES) | viability
COc1ccc(/C=C/C(=O)NC(=S)Nc2ccccn2)cc1 | inactive: 99.5%
C/C(=C\C(=O)c1cccnc1)Nc1ccc(O)cc1 | inactive: 101%
O=C(O)C1Nc2c(C(=O)N3CCOCC3)cccc2C2C=CCC12 (stereo not given) | inactive: 111%
CCOC(=O)COn1c(=O)c(-c2ccc(Cl)cc2)[n+]([O-])c2ccccc21 | inactive: 112%
NNC(=O)CCN1CCN(C(c2ccccc2)c2ccccc2)CC1 | inactive: 83.4%
O=C(Nc1ccccc1F)c1coc(=O)c(Br)c1 | inactive: 88%
Cc1cc(C)cc(NCCC#N)c1 | inactive: 88.6%
O=C(O)C1Nc2c(O)cc(Cl)c([N+](=O)[O-])c2C2C=CCC12 (stereo not given) | inactive: 85%
COC(=O)CCC(=O)OC1(C)C(=O)C2=COC(c3ccc(OC)cc3)=CC2=C(Br)C1=O (stereo not given) | inactive: 117%
Nc1cccc2c1C(=O)N(C(=O)/C=C/c1cccc(Br)c1)C2=O | inactive: 95.2%
Cc1ccc(NC(=O)Nc2ccc3c(c2)nc(C)n3C)cc1 | inactive: 109%
Cn1c(SCC(=O)c2cc(Cl)c(Cl)s2)nnc1-c1ccco1 | inactive: 112%
COc1ccccc1-n1c(-c2cc(-c3ccco3)[nH]n2)n[nH]c1=S | inactive: 106%
Cc1ccc2c(c1)c(CC(=O)Nc1ccc(C)c(F)c1)c(C(=O)O)n2C | inactive: 92.8%
Nc1nc(SCc2nc3scc(-c4ccccc4)c3c(=O)[nH]2)n[nH]1 | inactive: 90.6%
CC(=O)Oc1cccc(N2C(=O)CC(Nc3ccc(N4CCOCC4)cc3)C2=O)c1 (stereo not given) | inactive: 104%
CCN(CC(=O)NCc1cccs1)C(=O)c1ccc([N+](=O)[O-])o1 | inactive: 99.9%
N#Cc1ccccc1CN1C(=O)S/C(=C/c2cccn2-c2cccc(C(=O)O)c2)C1=O | inactive: 98.7%
CCCn1c(=O)c(-c2ccccc2)c(O)c2ccccc21 | inactive: 103%
C[n+]1cccc2cccc([O-])c21 | inactive: 98.1%
O=c1cc(-c2ccc(O)c(O)c2)oc2cc(O)c(C3OC(CO)C(O)C(O)C3O)c(O)c12 (stereo not given) | inactive: 103%
O=C1CC(Nc2ccc(N3CCOCC3)cc2)C(=O)N1C1CCCCC1 (stereo not given) | inactive: 80.7%
NC(=O)/C(=C/c1ccco1)C(N)=S | inactive: 94.8%
CSc1ccc(/C=N/n2c(C3CCCCC3)n[nH]c2=S)cc1 | inactive: 83.4%

Structure (SMILES) | viability
COc1ccc2nc3ccccc3nc2c1N | inactive: 95.1%
COc1ccc(NS(=O)(=O)c2cc(N=Nc3c(O)[nH]c(=O)[nH]c3=O)ccc2Cl)cc1 | inactive: 80.5%
CCOc1ccc2nc(Cl)c(C3CC(c4ccccc4)=NN3C(=O)c3cccs3)cc2c1 (stereo not given) | inactive: 91.6%
CSc1ccccc1NC(=O)c1noc2c1CCC2 | inactive: 98.2%
Cn1c(CNC(=O)C2CCCCC2)cc2cc(Cl)ccc21 | inactive: 101%
O=C(O)C1=NN(c2cc(Cl)c(S(=O)(=O)O)cc2Cl)C(=O)C1 | inactive: 89.4%
O=C(NN1C(=O)/C(=C/C=C/c2ccco2)SC1=S)c1ccncc1 | inactive: 102%
COCCn1c(SCC(=O)Nc2cccc(C)n2)nnc1-c1ccco1 | inactive: 104%
CCOc1ccccc1C(=S)NC1CCCCC1 | inactive: 101%
CCOC(CNC(=O)C(=O)Nc1cc2c3c(c1)CC(=O)N3CCC2)OCC | inactive: 97.9%
O=C(CCCCCN1C(=O)c2ccccc2C1=O)Nc1nccs1 | inactive: 97.2%
CCCN(CC(=O)Nc1ccccc1C)C(=O)COC(=O)c1cnc(C)cn1 | inactive: 105%
O=C(NCCO)Nc1ccc2nc(-c3ccco3)c(-c3ccco3)nc2c1 | inactive: 119%
O=C(NCCCO)c1ccc2nc(-c3ccco3)c(-c3ccco3)nc2c1 | inactive: 86.7%
CCN1C[C@@H]2[C@@H]3C(=O)N(Cc4ccccc4)C(=O)[C@@H]3[C@](C)(C(=O)OC)N2C1=NC1CCCCC1 | inactive: 99.2%
O=C1CC(c2ccco2)CC(O)=C1C=Nc1cc(Cl)ccc1Cl (stereo not given) | inactive: 86.1%
COc1ccc(NC(=O)CN(C)C(=O)c2cccc(-n3cccc3)c2)cc1 | inactive: 83.6%
CC(C)CCNC(=O)c1ccc2c(SCC(=O)O)c3c(nc2c1)CCC3 | inactive: 106%
O=C(COC(=O)c1cc(=O)[nH]c2ccccc12)Nc1cccc(S(=O)(=O)N2CCOCC2)c1 | inactive: 94.1%
CCOCCCNC(=O)C1CCN(S(=O)(=O)CC)CC1 | inactive: 111%
O=c1[nH]c(=S)[nH]c2c1C(c1ccc(Br)cc1)c1c([nH]c(=S)[nH]c1=O)O2 | inactive: 89.3%
Cc1cc([N+](=O)[O-])cc2c1NC(c1ccccn1)C1CC=CC21 (stereo not given) | inactive: 109%
O=C(N/N=C/C=C/c1ccco1)c1ccncc1 | inactive: 99.2%
